Laboratory results reported in the supplement of paper PMC12819154, “High-throughput peptide-centric local stability assay extends protein–ligand identification to membrane proteins, tissues and bacteria” (Nature Structural & Molecular Biology, 2025).
This is one part of the list. Small differences around the control level are noise.

Amino acid sequences for entries named in this document (tags omitted). A change or cut given only in a name is not applied to a line headed by its entry.
UniProt P60660, whole entry: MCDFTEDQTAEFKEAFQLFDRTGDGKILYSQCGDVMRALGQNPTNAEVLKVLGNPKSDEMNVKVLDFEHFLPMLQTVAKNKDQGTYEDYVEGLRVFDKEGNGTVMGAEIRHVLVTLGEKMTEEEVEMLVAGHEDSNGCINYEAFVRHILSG
UniProt P57076: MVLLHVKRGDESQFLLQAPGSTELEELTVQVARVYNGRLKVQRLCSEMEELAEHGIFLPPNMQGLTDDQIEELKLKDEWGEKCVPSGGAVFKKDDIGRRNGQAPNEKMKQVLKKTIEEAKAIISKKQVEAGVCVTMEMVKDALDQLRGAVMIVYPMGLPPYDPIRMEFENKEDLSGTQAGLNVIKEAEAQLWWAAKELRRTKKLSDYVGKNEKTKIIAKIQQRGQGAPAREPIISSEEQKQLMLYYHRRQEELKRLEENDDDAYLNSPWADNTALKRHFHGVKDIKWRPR
UniProt P58546, whole entry: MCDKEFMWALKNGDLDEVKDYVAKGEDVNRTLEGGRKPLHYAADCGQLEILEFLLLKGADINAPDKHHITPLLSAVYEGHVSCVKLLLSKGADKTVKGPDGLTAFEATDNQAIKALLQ
UniProt P78364: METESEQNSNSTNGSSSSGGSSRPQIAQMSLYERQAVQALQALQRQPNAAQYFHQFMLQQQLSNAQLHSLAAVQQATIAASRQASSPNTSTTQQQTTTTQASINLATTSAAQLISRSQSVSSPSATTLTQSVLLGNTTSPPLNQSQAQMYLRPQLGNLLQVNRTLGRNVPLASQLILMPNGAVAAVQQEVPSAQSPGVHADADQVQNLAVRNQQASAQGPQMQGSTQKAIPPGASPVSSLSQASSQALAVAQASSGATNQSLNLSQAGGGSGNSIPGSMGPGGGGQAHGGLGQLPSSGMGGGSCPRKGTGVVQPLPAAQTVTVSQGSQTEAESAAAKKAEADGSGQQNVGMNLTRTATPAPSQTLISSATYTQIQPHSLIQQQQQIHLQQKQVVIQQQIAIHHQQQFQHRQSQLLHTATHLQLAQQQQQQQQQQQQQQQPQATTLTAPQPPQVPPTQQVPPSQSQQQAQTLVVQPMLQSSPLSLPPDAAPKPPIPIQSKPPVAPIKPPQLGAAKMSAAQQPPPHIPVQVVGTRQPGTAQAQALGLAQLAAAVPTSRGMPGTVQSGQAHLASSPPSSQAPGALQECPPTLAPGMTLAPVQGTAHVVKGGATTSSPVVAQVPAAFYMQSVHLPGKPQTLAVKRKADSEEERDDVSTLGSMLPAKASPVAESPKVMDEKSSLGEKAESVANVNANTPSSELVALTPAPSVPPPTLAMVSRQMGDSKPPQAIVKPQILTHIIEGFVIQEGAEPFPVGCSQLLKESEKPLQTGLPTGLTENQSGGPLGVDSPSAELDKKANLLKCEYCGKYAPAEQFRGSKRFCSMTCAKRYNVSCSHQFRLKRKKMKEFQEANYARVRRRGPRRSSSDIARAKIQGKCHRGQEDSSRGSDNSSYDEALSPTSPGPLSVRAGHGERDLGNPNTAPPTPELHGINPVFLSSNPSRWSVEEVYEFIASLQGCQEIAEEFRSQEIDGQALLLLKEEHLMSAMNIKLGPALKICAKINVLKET
UniProt P83369: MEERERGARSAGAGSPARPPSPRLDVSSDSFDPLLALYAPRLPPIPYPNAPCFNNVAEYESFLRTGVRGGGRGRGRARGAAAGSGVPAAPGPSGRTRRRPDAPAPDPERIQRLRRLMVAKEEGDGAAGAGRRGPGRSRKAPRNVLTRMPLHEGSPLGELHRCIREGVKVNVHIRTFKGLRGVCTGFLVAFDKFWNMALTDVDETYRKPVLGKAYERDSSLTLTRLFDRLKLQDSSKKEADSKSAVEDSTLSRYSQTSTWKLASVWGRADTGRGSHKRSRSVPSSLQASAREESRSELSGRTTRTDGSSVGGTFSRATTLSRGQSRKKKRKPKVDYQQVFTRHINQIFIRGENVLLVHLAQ
UniProt P78347: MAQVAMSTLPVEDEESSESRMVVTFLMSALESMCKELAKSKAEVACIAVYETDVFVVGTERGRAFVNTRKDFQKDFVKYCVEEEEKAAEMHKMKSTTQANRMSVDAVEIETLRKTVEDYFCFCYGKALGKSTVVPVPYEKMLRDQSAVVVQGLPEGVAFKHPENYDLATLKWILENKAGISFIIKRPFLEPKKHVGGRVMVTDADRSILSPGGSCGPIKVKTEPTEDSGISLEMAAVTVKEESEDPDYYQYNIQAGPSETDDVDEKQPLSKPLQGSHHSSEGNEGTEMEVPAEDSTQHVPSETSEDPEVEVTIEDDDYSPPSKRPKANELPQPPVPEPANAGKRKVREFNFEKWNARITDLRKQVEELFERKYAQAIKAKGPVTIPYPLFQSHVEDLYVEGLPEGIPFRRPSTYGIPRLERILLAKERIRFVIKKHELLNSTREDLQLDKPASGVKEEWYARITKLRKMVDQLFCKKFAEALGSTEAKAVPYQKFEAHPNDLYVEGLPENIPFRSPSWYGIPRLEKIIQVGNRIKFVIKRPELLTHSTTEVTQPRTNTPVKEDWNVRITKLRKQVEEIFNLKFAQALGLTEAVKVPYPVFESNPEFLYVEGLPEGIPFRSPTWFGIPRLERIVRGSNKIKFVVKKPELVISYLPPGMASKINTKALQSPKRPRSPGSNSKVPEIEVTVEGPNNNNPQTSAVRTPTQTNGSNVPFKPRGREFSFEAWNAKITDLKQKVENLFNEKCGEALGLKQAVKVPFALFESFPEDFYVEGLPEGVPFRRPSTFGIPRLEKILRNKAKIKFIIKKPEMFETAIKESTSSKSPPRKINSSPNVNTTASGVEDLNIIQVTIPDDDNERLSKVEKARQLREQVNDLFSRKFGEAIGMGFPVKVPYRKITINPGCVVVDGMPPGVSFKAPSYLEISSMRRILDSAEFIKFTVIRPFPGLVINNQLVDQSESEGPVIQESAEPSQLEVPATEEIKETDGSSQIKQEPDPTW
UniProt P55263: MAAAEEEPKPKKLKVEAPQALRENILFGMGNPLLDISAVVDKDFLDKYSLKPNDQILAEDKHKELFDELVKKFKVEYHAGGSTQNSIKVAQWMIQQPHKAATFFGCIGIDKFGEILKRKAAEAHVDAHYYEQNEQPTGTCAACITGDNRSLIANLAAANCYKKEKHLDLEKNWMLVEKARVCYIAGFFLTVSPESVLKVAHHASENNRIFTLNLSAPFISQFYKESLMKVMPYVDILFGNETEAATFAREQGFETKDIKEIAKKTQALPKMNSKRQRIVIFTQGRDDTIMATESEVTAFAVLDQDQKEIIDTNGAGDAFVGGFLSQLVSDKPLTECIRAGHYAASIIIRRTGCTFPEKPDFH

compound: CN[C@@H]1C[C@H]2O[C@@](C)([C@@H]1OC)n1c3ccccc3c3c4c(c5c6ccccc6n2c5c31)C(=O)NC4 [staurosporine]; test: log2 fold change of tryptic peptide abundance, ligand vs vehicle (limited proteolysis) (log2 ratio); higher = more trypsin-susceptible (destabilized); settings: ligand concentration: 20 uM; sample: K562 cleared lysate; digestion: 4 min, 22 C (HT-PELSA RT4min, Orbitrap Astral)

Row | Target | log2 fold change
1 | UniProt P60660 (peptide sequence: VFDKEGNGTVMGAEIR, peptide start residue: 95) | -0.105
2 | UniProt P62081 (peptide sequence: EIEVGGGRK, peptide start residue: 50) | 0.146
3 | RPL38 (peptide sequence: CSRYLYTLVITDKEK, peptide start residue: 38) (UniProt P63173) | 0.155
4 | UniProt P57076 (peptide sequence: KLSDYVGK, peptide start residue: 203) | 0.158
5 | MTPN (peptide sequence: NGDLDEVK, peptide start residue: 12) (UniProt P58546) | 0.596
6 | PHC1 (peptide sequence: PQIAQMSLYER, peptide start residue: 24) (UniProt P78364) | 0.155
7 | LSM11 (peptide sequence: LDVSSDSFDPLLALYAPR, peptide start residue: 24) (UniProt P83369) | -0.256
8 | MRPS10 (peptide sequence: FTLLQSVHIYK, peptide start residue: 118) (UniProt P82664) | -0.244
9 | GTF2I (peptide sequence: FGEAIGMGFPVKVPYRK, peptide start residue: 880) (UniProt P78347) | 0.209
10 | ADK (peptide sequence: AAAEEEPKPK, peptide start residue: 2) (UniProt P55263) | -0.128
11 | UniProt P61313 (peptide sequence: GATYGKPVHHGVNQLKFAR, peptide start residue: 78) | 0.708

In another format: results already given

| Row | Target | log2 fold change |
| --- | --- | --- |
| 6 | PHC1 (peptide sequence: PQIAQMSLYER, peptide start residue: 24) (UniProt P78364) | 0.155 |
| 7 | LSM11 (peptide sequence: LDVSSDSFDPLLALYAPR, peptide start residue: 24) (UniProt P83369) | -0.256 |
